The list does not hold the whole screen: it gathers tests that were run many times, whatever their T/C, doses with no T/C, and many T/C values between a quarter and a half above the control. Further doses and runs are listed elsewhere. T/C: endpoint of the treated group in % of that of the vehicle group. Some doses have a count of surviving animals in place of a T/C: the source holds a T/C of zero for them, seemingly a mark for toxic or unscored doses. Some survivor counts are full or nearly so, which does not show that the dose was tolerated: survival well below the control is almost never listed, so the zero probably covers shortened survival too. Counts of survivors are from the toxicity check (mostly the fifth day) where no day follows; animals may have died later. Schedule codes are those of the source, read here as Q, the interval in days (D) or hours (H), X, the number of doses. Some schedules carry Z or #; the key to these is not given. Some entries hold several experiments; the results are listed from low to high. Some molecules as drawn cover several salts, stereoisomers or complexes of the source; a dose is that of the sample tested. Marks such as (2×) count equal records among those shown. For survival time, the PubChem record calls one and a half times the control and up active, and a quarter to a half above the control has no call in these data; cut-offs in other NCI protocols can differ.

The experiment relates to L1210 leukemia ip in BDF1 mice, survival T/C. The experiment in a line: NCI In Vivo Anticancer Drug Screen. Data for tumor model L1210 Leukemia (intraperitoneal) in B6D2F1 (BDF1) mice. The conditions noted are these: T/C endpoint: mean survival time, higher T/C = longer survival.
[1] abbreviates: dose: 400.0 mg/kg/injection, schedule: Q01DX001 (ip), vehicle: saline with Tween-80.
The mark [2] stands for this setting: dose: 200.0 mg/kg/injection, schedule: Q04DX003 (ip), vehicle: carboxymethylcellulose (CMC).

`CN(C)NCCC#N`: the T/C is 133 and 141 % of control (dose: 150.0 mg/kg/injection, schedule: Q01DX009 (ip), vehicle: saline); 127 % of control (dose: 400.0 mg/kg/injection, schedule: Q01DX009 (ip), vehicle: saline sonified). Moreover, the survivor count is, setting by setting: (dose: 225.0 mg/kg/injection, schedule: Q01DX009 (ip), vehicle: saline) 6 of 6; (dose: 300.0 mg/kg/injection, schedule: Q01DX009 (ip), vehicle: saline) 6 of 6; (dose: 600.0 mg/kg/injection, schedule: Q01DX009 (ip), vehicle: saline) 0 of 6.
`COC(=O)C1CC23CCCC12CC3` (stereo not drawn): where the note is “dose: 400.0 mg/kg/injection, schedule: Q04DX002 (ip), vehicle: saline with Tween-80”, the survivor count is 0 of 3.
For `CCOC(=O)COC(CC[P+](c1ccccc1)(c1ccccc1)c1ccccc1)(C(=O)c1ccccc1)c1ccccc1` (stereo not drawn), the survivor count by setting is: (dose: 100.0 mg/kg/injection, schedule: Q01DX001 (ip), vehicle: saline with Tween-80) 0 of 6 (2×); (dose: 200.0 mg/kg/injection, schedule: Q01DX001 (ip), vehicle: saline with Tween-80) 0 of 6 (2×); under setting [1], 0 of 6 (2×).
As to `CNC(=O)NNC(=O)c1ccc(Cl)cc1`, the survivor count (dose: 100.0 mg/kg/injection, schedule: Q01DX009 (ip), vehicle: saline with Tween-80) is recorded as 3 of 6.
For `O=C(CCl)Nc1cccc(S(=O)(=O)F)c1`, the survivor count by setting is: under setting [2], 6 of 6; (dose: 400.0 mg/kg/injection, schedule: Q04DX003 (ip), vehicle: carboxymethylcellulose (CMC)) 1 of 6.
Consider `Oc1cccc2cccnc12.[Al]`, for which the survivor count (dose: 5.0 mg/kg/injection, schedule: Q01DX Z (ip), vehicle: carboxymethylcellulose (CMC)) is 4 of 6.
`N=C(N)CCc1ccccc1`: the survivor count (dose: 300.0 mg/kg/injection, schedule: Q04DX003 (ip), vehicle: saline) was 1 of 6.
Turning to `CCCCCCCCCCCCCCCCCCNC(=S)SCCCC`, the survivor count runs as follows: (dose: 100.0 mg/kg/injection, schedule: Q04DX002 (ip), vehicle: saline + alcohol) 3 of 3; (dose: 200.0 mg/kg/injection, schedule: Q04DX002 (ip), vehicle: saline + alcohol) 3 of 3.
As for `Cc1ccc(Nc2ccc([N+](=O)[O-])cc2[N+](=O)[O-])cc1C`, the survivor count (dose: 100.0 mg/kg/injection, schedule: Q04DX003 (ip), vehicle: Klucel (hydroxypropylcellulose) (HPC)) is 6 of 6.
`S=C=Nc1ccc(Cl)cc1`: the survivor count runs as follows: (dose: 200.0 mg/kg/injection, schedule: Q04DX003 (ip), vehicle: saline with Tween-80) 5 of 6; (dose: 400.0 mg/kg/injection, schedule: Q04DX003 (ip), vehicle: saline with Tween-80) 0 of 6.
As to `CC1CN(Cc2ccc([N+](=O)[O-])cc2)CC(C)N1N=O` (stereo not drawn), the survivor count by setting is: (dose: 25.0 mg/kg/injection, schedule: Q01DX009 (ip), vehicle: water) 1 of 6; (dose: 50.0 mg/kg/injection, schedule: Q01DX009 (ip), vehicle: water) 5 of 6; (dose: 100.0 mg/kg/injection, schedule: Q01DX009 (ip), vehicle: water) 6 of 6; (dose: 200.0 mg/kg/injection, schedule: Q01DX009 (ip), vehicle: water) 6 of 6; (dose: 400.0 mg/kg/injection, schedule: Q01DX009 (ip), vehicle: water) 5 of 6.
In the case of `CCCCSSC(Cl)(Cl)Cl`, the survivor count by setting is: (dose: 25.0 mg/kg/injection, schedule: Q01DX009 (ip), vehicle: carboxymethylcellulose (CMC)) 3 of 3; (dose: 50.0 mg/kg/injection, schedule: Q01DX009 (ip), vehicle: carboxymethylcellulose (CMC)) 0 of 6; (dose: 100.0 mg/kg/injection, schedule: Q01DX009 (ip), vehicle: carboxymethylcellulose (CMC)) 0 of 6; (dose: 100.0 mg/kg/injection, schedule: Q04DX003 (ip), vehicle: carboxymethylcellulose (CMC)) 0 of 6; (dose: 200.0 mg/kg/injection, schedule: Q01DX009 (ip), vehicle: carboxymethylcellulose (CMC)) 0 of 6; under setting [2], 0 of 6. Where the note is “dose: 400.0 mg/kg/injection, schedule: Q04DX002 (ip), vehicle: carboxymethylcellulose (CMC)”, the survivor count is 1 of 3 and 3 of 6. Also, the T/C (dose: 100.0 mg/kg/injection, schedule: Q04DX002 (ip), vehicle: carboxymethylcellulose (CMC)) is 90, 98, 107, 116 % of control.
Consider `CN(C(=O)c1ccc(C(=N)N)cc1)c1ccccc1`, for which the survivor count under setting [1] is reported as 0 of 6.

For the origin of these results see PubChem BioAssay AID248 (DTP/NCI, 2004).
